# Measurements published in the supplement of paper PMC4604168 (melanoma cell lines).
# Some of the results follow. Single values are uncertain, as repeats are few or missing.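 Imaging used 1,536-well plates; nuclei positive for cleaved PARP by antibody were divided by total DNA-stained nuclei to yield the apoptosis fraction. Doses for screening kept most cells viable, and cell lines differ markedly in resting and induced cleaved-PARP levels.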
# Legend:
# Assay in all cases: cleaved PARP positive nuclei fraction relative to DMSO control; melanoma cells; higher = more apoptosis
# Conditions in all cases: library dose: low library concentration; 72 h
# WM115 = test system: WM115
# WM1716 = test system: WM1716
# WM1745 = test system: WM1745
# WM3526 = test system: WM3526
# WM3619 = test system: WM3619
# WM451Lu = test system: WM451Lu
Compound,cleaved PARP positive nuclei fraction (WM115) [%],cleaved PARP positive nuclei fraction (WM1716) [%],cleaved PARP positive nuclei fraction (WM1745) [%],cleaved PARP positive nuclei fraction (WM3526) [%],cleaved PARP positive nuclei fraction (WM3619) [%],cleaved PARP positive nuclei fraction (WM451Lu) [%]
"Cn1cncc1[C@@](N)(c1ccc(Cl)cc1)c1ccc2c(c1)c(-c1cccc(Cl)c1)cc(=O)n2C [tipifarnib] + Oc1nc(-c2ccc(C(F)(F)F)cc2)nc2c1CSCC2 [XAV939] (first compound 0.01 µM, partner dose 2 µM)",61.3,126,123,175,216,76.6
"O=C(Nc1cccc(Cl)c1)Nc1ncc(CCNc2ncnc3ccsc23)s1 + CCN(CC)CCCCNc1ncc2cc(-c3cc(OC)cc(OC)c3)c(NC(=O)NC(C)(C)C)nc2n1 [PD173074] (first compound 0.0008 µM, partner dose 0.1 µM)",54,25.4,136,61.6,79.5,76.7
"CO[C@@H]1[C@H](N(C)C(=O)c2ccccc2)C[C@H]2O[C@]1(C)n1c3ccccc3c3c4c(c5c6ccccc6n2c5c31)C(=O)NC4 [Midostaurin] + Cc1cc(N2CCOCC2)cc2[nH]c(-c3c(NC[C@@H](O)c4cccc(Cl)c4)cc[nH]c3=O)nc12 [BMS536924] (first compound 0.08 µM, partner dose 0.2 µM)",64.2,181,114,16.1,96.1,25.1
"OCc1c[nH]c2ccccc12 [Indole-3-carbinol] + O=C(CCCCCCC(=O)Nc1ccccc1)NO [vorinostat] (first compound 0.8 µM, partner dose 0.08 µM)",106,150,92.8,37.4,112,58.1
"Cn1nnc2c(C(N)=O)ncn2c1=O [temozolomide] + CN(NC(=O)CC(=O)NN(C)C(=S)c1ccccc1)C(=S)c1ccccc1 [STA4783] (first compound 2 µM, partner dose 0.006 µM)",149,283,282,51.6,986,42.5
"Cn1c(Nc2ccc(C(F)(F)F)cc2)nc2cc(Oc3ccnc(-c4ncc(C(F)(F)F)[nH]4)c3)ccc21 + Cc1cc(N2CCOCC2)cc2[nH]c(-c3c(NC[C@@H](O)c4cccc(Cl)c4)cc[nH]c3=O)nc12 [BMS536924] (first compound 0.08 µM, partner dose 0.2 µM)",333,169,156,407,140,106
"CC1(C)NC(=O)N(c2ccc([N+](=O)[O-])c(C(F)(F)F)c2)C1=O [nilutamide] + COc1ccc(-c2ccc3c(N4CCOCC4)nc(N4C[C@@H](C)O[C@@H](C)C4)nc3n2)cc1CO [KU0063794] (first compound 1 µM, partner dose 0.02 µM)",41.4,84.4,100,131,78.4,47.9
"CC(=O)c1c(C)c2cnc(Nc3ccc(N4CCNCC4)cn3)nc2n(C2CCCC2)c1=O [palbociclib] + Cn1cc(/C=C2\C(=O)Nc3cccnc32)c2ccccc21 [GW441756] (first compound 0.04 µM, partner dose 0.4 µM)",225,88.7,122,99.1,108,41.9
"Clc1ccc(Nc2nnc(Cc3ccncc3)c3ccccc23)cc1 [vatalanib] + COCC[n+]1c2c(n(Cc3cnccn3)c1C)C(=O)c1ccccc1C2=O [YM155] (first compound 2 µM, partner dose 0.0004 µM)",97.2,123,105,45.8,97.3,66.2
"COCC[n+]1c2c(n(Cc3cnccn3)c1C)C(=O)c1ccccc1C2=O + COc1cc2c(Oc3ccc4[nH]c(C)cc4c3F)ncnc2cc1OCCCN1CCCC1 [cediranib] (first compound 0.0004 µM, partner dose 0.4 µM)",34.5,91.9,84.1,64,107,192
"Nc1cccc2c1CN(C1CCC(=O)NC1=O)C2=O (centres undefined) [lenalidomide] + Cn1nnc2c(C(N)=O)ncn2c1=O [temozolomide] (first compound 1 µM, partner dose 2 µM)",114,44.3,235,84.1,83.3,277
"C#Cc1cccc(Nc2ncnc3cc(OCCOC)c(OCCOC)cc23)c1 [erlotinib] + CCN(CC)CCCCNc1ncc2cc(-c3cc(OC)cc(OC)c3)c(NC(=O)NC(C)(C)C)nc2n1 [PD173074] (first compound 0.8 µM, partner dose 0.1 µM)",143,144,136,71.7,75.2,253
"Cn1nnc2c(C(N)=O)ncn2c1=O [temozolomide] + OCCn1cc(-c2cnc3nnn(Cc4ccc5ncccc5c4)c3n2)cn1 [PF04217903] (first compound 2 µM, partner dose 1 µM)",68.9,105,109,62.1,114,78.4
"C[C@]1(c2nc3c(C(N)=O)cccc3[nH]2)CCCN1 [Veliparib] + N#Cc1c(O)c2c(-c3ccc(-c4ccccc4O)cc3)csc2[nH]c1=O [A769662] (first compound 1.4 µM, partner dose 2 µM)",335,91.2,106,117,62.5,26.6
"C[C@]1(c2nc3c(C(N)=O)cccc3[nH]2)CCCN1 [Veliparib] + CCc1ccc(CCOc2ccc(CC3SC(=O)NC3=O)cc2)nc1 [pioglitazone] (first compound 1.4 µM, partner dose 2 µM)",174,68.4,123,273,106,58.7
"C=CCn1c(=O)c2cnc(Nc3ccc(N4CCN(C)CC4)cc3)nc2n1-c1cccc(C(C)(C)O)n1 + Cc1cc([N+](=O)[O-])ccc1NS(=O)(=O)c1cc(Cl)ccc1Cl [FH535] (first compound 0.02 µM, partner dose 1 µM)",243,151,129,61.5,112,316
"Clc1ccc(Nc2nnc(Cc3ccncc3)c3ccccc23)cc1 [vatalanib] + CN(NC(=O)CC(=O)NN(C)C(=S)c1ccccc1)C(=S)c1ccccc1 [STA4783] (first compound 2 µM, partner dose 0.006 µM)",97.3,216,97.8,113,110,57.3
"Cc1nc(Nc2ncc(C(=O)Nc3c(C)cccc3Cl)s2)cc(N2CCN(CCO)CC2)n1 [dasatanib] + C[C@@H]1CCN(C(=O)CC#N)C[C@@H]1N(C)c1ncnc2[nH]ccc12 [CP690550] (first compound 0.004 µM, partner dose 1 µM)",84.8,232,154,60,76.3,393
"OCc1c[nH]c2ccccc12 [Indole-3-carbinol] + C=CCn1c(=O)c2cnc(Nc3ccc(N4CCN(C)CC4)cc3)nc2n1-c1cccc(C(C)(C)O)n1 [MK1775] (first compound 0.8 µM, partner dose 0.02 µM)",58.9,48.7,132,252,174,97.6

# Laid out differently: entries from further up.
Compound	cleaved PARP positive nuclei fraction (WM115) [%]	cleaved PARP positive nuclei fraction (WM1716) [%]	cleaved PARP positive nuclei fraction (WM1745) [%]	cleaved PARP positive nuclei fraction (WM3526) [%]	cleaved PARP positive nuclei fraction (WM3619) [%]	cleaved PARP positive nuclei fraction (WM451Lu) [%]
CC1(C)NC(=O)N(c2ccc([N+](=O)[O-])c(C(F)(F)F)c2)C1=O [nilutamide] + COc1ccc(-c2ccc3c(N4CCOCC4)nc(N4C[C@@H](C)O[C@@H](C)C4)nc3n2)cc1CO [KU0063794] (first compound 1 µM, partner dose 0.02 µM)	41.4	84.4	100	131	78.4	47.9
CC(=O)c1c(C)c2cnc(Nc3ccc(N4CCNCC4)cn3)nc2n(C2CCCC2)c1=O [palbociclib] + Cn1cc(/C=C2\C(=O)Nc3cccnc32)c2ccccc21 [GW441756] (first compound 0.04 µM, partner dose 0.4 µM)	225	88.7	122	99.1	108	41.9
